{"sequences": {"note": "Sequences of proteins named here, by UniProt entry; tags and fusion partners are left off.", "UniProt P16495": "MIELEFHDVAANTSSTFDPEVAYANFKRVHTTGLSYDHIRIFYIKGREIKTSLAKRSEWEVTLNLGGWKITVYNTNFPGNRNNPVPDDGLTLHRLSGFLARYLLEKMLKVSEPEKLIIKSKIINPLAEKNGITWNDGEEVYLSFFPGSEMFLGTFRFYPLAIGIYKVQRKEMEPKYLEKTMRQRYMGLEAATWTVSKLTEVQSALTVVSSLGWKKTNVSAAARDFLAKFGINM"}, "source": "paper PMC9426602", "about": "“The Native Orthobunyavirus Ribonucleoprotein Possesses a Helical Architecture” (mBio, 2022)", "biological_target": "Bunyamwera virus (BUNV) nucleocapsid protein (NP), as it stands in native ribonucleoproteins (RNPs) purified from virions (Bunyamwera virus) (UniProt P16495)", "assay": "condition: only after RNase A at 0.1 mg/mL or 1 mg/mL, 30 min at room temperature; negative staining EM; purified native RNPs in TNE treated with RNase A (0.1 mg/mL or 1 mg/mL) for 30 min at room temperature, then negative staining; both purified", "note": "These are yes or no findings as the source states them, for the method shown.", "data": [{"substance": "Bunyamwera virus (BUNV) nucleocapsid protein (NP), as it stands in native ribonucleoproteins (RNPs) purified from virions (from UniProt P16495 1-233)", "values": [{"measurement": "binding", "result": "no binding"}]}]}
